# Library screening results

A: 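Whole-cell assay for inhibitors of Mycobacterium tuberculosis growth, labelled Cornell in the record; the read-out is not stated. The concentration is filed as 10 mM, unlikely as a test dose, so the dose is not known. Higher means stronger inhibition (inferred from two other growth screens of the library). About 53,000 compounds were tested under these conditions; 1.7% (about 900) showed 50% or more at least once.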
B: 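Assay on Mycobacterium tuberculosis, filed only as a heat shock assay from Cornell; the read-out is not stated. The concentration is filed as 10 mM, unlikely as a test dose, so the dose is not known. The record gives no direction; compounds that gave an IC50 in retests scored well above the rest, so higher reads as stronger inhibition. Of about 69,000 compounds tested this way, about 930 (1.4%) reached 50% or more in at least one test.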

Values are the deposited “Percent Effect”, in %. How 0% and 100% were set is not recorded. Most values in the screen are low, and negative values occur. The compounds are a random part of those screened. A dash means the value is not listed here; it may have been measured.

compound: Cc1nn(C)c(N(C)C)c1CNC1CCOc2ccccc21 (configuration not stated)
B: -27.63

compound: Cc1cnn(CC2CCCCN2CC(=O)N(C)Cc2ccc(C)o2)c1 (configuration not stated)
A: 22.27
B: -7.104

compound: COc1ccccc1C(=O)N1CC(Cc2nccc3ccn(C)c23)C1
A: 14.68
B: -0.8061

compound: O=C(O)c1ccc(S(=O)(=O)Nc2cccc(CC(F)(F)F)c2)c(F)c1
A: 32.15
B: 5.151

compound: CCC(CC)NC(=O)c1ccc2c(c1)C(c1nc[nH]n1)CN2S(C)(=O)=O (configuration not stated)
A: -1.617
B: -4.895

compound: O=C1CN(c2cc(-c3ccccc3F)nc3ccnn23)CCCN1
A: 30.17
B: 0.3632

compound: COc1cccc(-c2n[nH]cc2C(=O)NC(C)CC(=O)O)c1 (configuration not stated)
A: -4.278
B: -3.666

compound: Cc1cnn(CCNCc2csc(-c3ccc(F)cc3)n2)c1
B: 22.16

compound: COc1ccccc1CC1CCCN(C(=O)c2cc[nH]n2)C1 (configuration not stated)
B: -34.17

compound: CN(Cc1ccc(Cl)s1)C(=O)Nc1ccc(N(C)C)nc1
B: -23.87

compound: CN(C)C(=O)c1cc2c(s1)CCN(C(=O)CCCN1CCCCC1)C2
A: 28.92
B: 5.076

compound: Cc1nc2ccn(C(C)C)c(=O)c2cc1C(=O)O
A: 8.271
B: 4.075

compound: CCc1nsc(N2CCCN(C(=O)c3ccc(CC)o3)CC2)n1
A: -1.286
B: -13.29

compound: CNC(=O)c1cn[nH]c1C1CCN(Cc2cn(C)nc2C)C1 (configuration not stated)
A: -22.18
B: 3.669

compound: Cc1noc(C)c1CCCNC(=O)C1CCN(C(=O)C2CC2)CC1
A: -40.88
B: -15.65

compound: [H][C@]12CN(CCCSC)CC[C@@]1(O)CCN(c1ncccn1)C2
A: 8.779
B: -6.556

compound: CCC/C=C/c1ccc(CN2CCN(C)CC2)cn1
A: -3.694
B: 6.306

compound: COc1ccc2nnc(CCCC(=O)NCCc3ccccc3)n2n1
A: 39.24
B: 11.22

compound: CC(=O)N1CCC(c2ncc(C(=O)Nc3ccccc3)c(C)n2)CC1
A: 16.5
B: -6.901

compound: O=C(O)C(F)(F)F.[H][C@@]12CCC(=O)N(c3cnn(C)c3)[C@]1([H])CCN2CC1CCOCC1
A: 25.32
B: -30.29

compound: CCn1nc2c(cc1=O)CN(CC1CCCCO1)CC2 (configuration not stated)
B: -21.59

compound: CCN1CCN(Cc2nc(Cc3ccccc3)n[nH]2)CC1
A: 15.19
B: -7.872

compound: O=C(c1cnccn1)N1CCc2onc(Cn3cccn3)c2C1
A: 1.598
B: -25.62

compound: Cc1nc(C)n(C2CCCN(C(=O)CCCNc3ncccn3)C2)n1 (configuration not stated)
A: -34.11
B: 2.238

compound: Cc1cc(C)c(C(=O)N(C)CCN(C)C(=O)c2[nH]c(C)cc2C)[nH]1
A: 1.614
B: -0.5645

compound: COc1ccc(CNc2c(C)nn(C(C)C)c2C)cc1
A: 12.32
B: -7.559

compound: [H][C@@]12C[C@H](C(=O)NCc3cccnc3)[C@@]([H])(CN(Cc3ccc(C)cc3)C1)O2
A: -46.51
B: -10.21

compound: CCC(CO)NC(=O)NCc1cc(C#N)ccc1F (configuration not stated)
A: -5.23
B: -8.722

compound: CC(C)(C)C(=O)N1CC(=O)N(Cc2ccco2)CC(O)C1 (configuration not stated)
A: 8.913
B: 52.39

compound: Cc1ccc(-c2csc(N)c2C#N)cc1
B: 19.34

compound: COc1cccc(CCC(=O)Nc2ccn(C)n2)c1OC
A: -2.109
B: 14.18

compound: COc1ccc(OC)c(CN(C)c2ncc(S(N)(=O)=O)s2)c1
A: 12.56
B: 14.73

compound: O=C(c1cc2c(Cl)cccc2[nH]1)N1CCN(CCc2ccccn2)CC1
A: 11.71
B: -8.831

compound: O=C(NCC1CC1)C1CN(C(=O)Nc2ccccc2)CC12CCOCC2 (configuration not stated)
A: -15.05
B: 2.305

compound: Clc1cccnc1N1CCC(C2CCN(Cc3cccnc3)CC2)C1 (configuration not stated)
A: -21.75
B: -12.96

compound: CC(C)CC1COCCN1C(=O)Cc1cccs1 (configuration not stated)
B: 1.908

compound: COCC(=O)N1CCC(c2cccc(Cc3ccc(F)cc3)n2)CC1
A: 10.31
B: 0.2641

compound: COc1ccccc1-c1noc(CNc2ccc(F)cc2OCCO)n1
A: 45.2
B: 2.15

compound: O=C(c1cc(C2CC2)nc2onc(-c3ccccc3)c12)N1CC[C@H](O)C1
B: -28.5

compound: CCS(=O)(=O)c1nccn1-c1cccc(F)c1
A: 5.874
B: -4.762

compound: CCc1ncc(C(=O)N2CCOCC2c2c(C)n[nH]c2C)s1 (configuration not stated)
A: -0.3981
B: -29.69

compound: O=C(NCCCN1CCCC1=O)c1nc(-c2ccc3[nH]ccc3c2)no1
A: 3.66
B: -4.47

compound: CCCn1nccc1-c1nccnc1CC1CCN(C(C)=O)C1 (configuration not stated)
A: 15.1
B: -12.04

compound: CS(=O)(=O)Cc1ccc(C(=O)NCC2Cc3ccccc3O2)cc1 (configuration not stated)
A: 6.734
B: -9.928

compound: COc1cccc2c1ccn2CCC(=O)N1CCCC(C(=O)O)C1 (configuration not stated)
A: -20.27
B: -6.773

compound: N#Cc1cccc(C(=O)NC2CCc3c(ccc(=O)n3CC3CC3)C2)c1 (configuration not stated)
A: 11.22
B: 29.35

compound: O=C1COc2c(cccc2C(=O)N2CCCCC2Cn2cccn2)N1 (configuration not stated)
B: 10.17

compound: CC(C)Cn1cc(NC(=O)N2CCCC2)cn1
B: 13.1

The last 3 entries again:

| compound | A | B |
|---|---|---|
| `N#Cc1cccc(C(=O)NC2CCc3c(ccc(=O)n3CC3CC3)C2)c1` (configuration not stated) | 11.22 | 29.35 |
| `O=C1COc2c(cccc2C(=O)N2CCCCC2Cn2cccn2)N1` (configuration not stated) | - | 10.17 |
| `CC(C)Cn1cc(NC(=O)N2CCCC2)cn1` | - | 13.1 |

The values are deposited in ChEMBL (CHEMBL3988442, “University of Dundee, Small-Polar-MMV Screening Library” (2021)).